Results as given in patent publication US5792851A, “Human prostaglandin transporter” (Albert Einstin College of Medicine of Yeshiva University, a …, priority 1996, dated 1998).

Target: human prostaglandin transporter (hPGT) (Homo sapiens, UniProt Q92959)
Assay: Inhibition of hPGT-mediated tracer PGE2 uptake in transfected HeLa cells
Assay type: cell-based

## NS(=O)(=O)c1cc(C(=O)O)c(NCc2ccco2)cc1Cl [Furosemide]
  potency as inhibitor of hPGT (in words): moderately-potent inhibitor
